{
  "source": "PubChem BioAssay (NCATS)",
  "note": "Inconclusive results, whose numbers are uncertain, are shown with a selection of clear calls. Potencies beside an inconclusive call are fits to weak or partial responses and may not hold up. Active and inactive are the calls of the source. Calls come from the whole dose curve. Potency is the fitted concentration of half-maximal effect.",
  "data": [
    {"experiment": "Confirmatory qHTS for activators (rescue) of SARS-CoV-2 Cytopathic Effect (CPE) (AID 1508606); note: nearly all actives have a fitted effect of over 70% in size; for CPE rescue (activation): 0% is about no effect", "details": "Vero E6 SARS-CoV-2 CPE rescue, viability luminescence; series mostly up to 20 µM; CPE rescue (activation): at the top concentration", "values": [
      {"compound": "CCc1cccc(CC)c1-n1c(C=C(C)C)c(C(=O)N2CCNCC2)cc(-c2nc(-c3ccc(C(F)(F)F)cc3)cs2)c1=O", "CPE rescue (activation)": "inactive: -10.8% [at 10 µM]"},
      {"compound": "CC1CCN(C(c2ccc(F)cc2)c2ccc(C(C)C(=O)O)cc2-c2ccc(C(F)(F)F)cc2)CC1", "note": "(stereo unspecified)", "CPE rescue (activation)": "inactive: -11.1%"},
      {"compound": "Cc1nc(Nc2ccc(F)cc2)nc(N2CCc3ccccc3C2C)c1C", "note": "(stereo unspecified)", "Potency": "inconclusive: 3.55 µM [activator, full curve]"},
      {"compound": "COc1ccccc1Nc1nc(-c2sc(NC(C)=O)nc2C)cs1", "Potency": "inconclusive: 8.91 µM [activator, partial curve]"},
      {"compound": "CC1=C(c2ccc(O)cc2)[C@H](c2ccc(OCCN3CCCCC3)cc2)Oc2cc(O)ccc21", "Potency": "inconclusive: 5.01 µM [activator, full curve]"},
      {"compound": "Fc1ccc(-c2nc(C3CCNCC3)sc2-c2ccnc(NC3CC3)n2)cc1", "Potency": "inconclusive: 8.91 µM [activator, partial curve]"},
      {"compound": "COc1cc(NC(=O)Nc2cccc(CNC(=O)O[C@H]3CCOC3)c2)ccc1-c1cnco1", "CPE rescue (activation)": "inactive: -1.53%"},
      {"compound": "C=CC(C)(C)c1[nH]c2ccccc2c1C1=C(O)C(=O)C(c2c[nH]c3c(CC=C(C)C)cccc23)=C(O)C1=O", "CPE rescue (activation)": "inactive: -10.8%"},
      {"compound": "CC1OC2OC3C(OCC(O)C3O)OC(=O)C34CCC(C)(C)CC3C3=CCC5C6(C)CC(O)C(OC7OC(CO)C(O)C(O)C7OC7OCC(OC(=O)CC(C)(O)CC(=O)OC1C(OC1OCC(O)C(O)C1O)C2O)C(O)C7O)C(C)(CO)C6CCC5(C)C3(C)CC4O", "note": "(stereo unspecified)", "CPE rescue (activation)": "inactive: -12.1% [at 10 µM]"},
      {"compound": "Cn1nnnc1Sc1ncnc2scc(-c3cccc(S(C)(=O)=O)c3)c12", "Potency": "inconclusive: 2.82 µM [activator, full curve]"},
      {"compound": "Cc1cc(CN)cc(C)c1NC(=O)c1ccc(-c2cc(Cl)ccc2Cl)o1", "Potency": "active: 7.94 µM"},
      {"compound": "COc1cccc(NC[C@@H](O)Cn2c3ccc(Br)cc3c3cc(Br)ccc32)c1", "Potency": "inconclusive: 11.2 µM [activator, partial curve]"},
      {"compound": "CN(CCc1ccc(Nc2ncc(-c3cccnc3)s2)cc1)Cc1ccccc1", "Potency": "inconclusive: 7.94 µM [activator, partial curve]"},
      {"compound": "CN(CCCNC(=O)c1ccc2nc3c(c(Cl)c2c1)CCCC3)Cc1ccccc1", "Potency": "active: 7.08 µM"},
      {"compound": "O=C(O)/C=C/c1ccc(-c2ccc(O)c(C34CC5CC(CC(C5)C3)C4)c2)cc1", "CPE rescue (activation)": "inactive: -8.95%"},
      {"compound": "COc1cc2c3cc1Oc1c(OC)c(OC)cc4c1[C@@H](Cc1ccc(O)c(c1)Oc1ccc(cc1)C[C@@H]3N(C)CC2)N(C)CC4", "Potency": "inconclusive: 2.82 µM [activator, full curve]"},
      {"compound": "Nc1ncnc2c1c(-c1ccc(Oc3ccccc3)cc1)nn2[C@@H]1CCCNC1", "CPE rescue (activation)": "inactive: -5.36%"},
      {"compound": "COc1cc2ncnc(Sc3nnc(C)s3)c2cc1OC", "Potency": "active: 3.98 µM"},
      {"compound": "C[C@@H]1O[C@@H](O[C@H]2[C@H](OC(=O)[C@]34CCC(C)(C)C[C@H]3C3=CCC5[C@@]6(C)C[C@H](O)[C@H](O[C@@H]7O[C@H](CO[C@@H]8OC[C@H](O)[C@H](O)[C@H]8O)[C@@H](O)[C@H](O)[C@H]7O)C(C)(C)C6CC[C@@]5(C)[C@]3(C)C[C@H]4O)OC[C@@H](O)[C@@H]2O)[C@H](O)[C@H](O[C@@H]2OC[C@](O)(CO)[C@H]2O)[C@H]1O[C@@H]1OC[C@H](O)[C@H](O[C@@H]2OC[C@@H](O)[C@H](O)[C@H]2O)[C@H]1O", "note": "(stereo partly specified)", "Potency": "inconclusive: 2.14 µM [activator, single point]"},
      {"compound": "C[C@@H]1O[C@@H](O[C@H]2[C@H](OC(=O)[C@]34CCC(C)(C)C[C@H]3C3=CCC5[C@@]6(C)CC[C@H](O[C@@H]7O[C@H](CO[C@@H]8OC[C@H](O)[C@H](O)[C@H]8O)[C@@H](O)[C@H](O)[C@H]7O)C(C)(C)C6CC[C@@]5(C)[C@]3(C)C[C@H]4O)OC[C@@H](O)[C@@H]2O)[C@H](O)[C@H](O)[C@H]1O[C@@H]1OC[C@H](O)[C@H](O[C@@H]2OC[C@@H](O)[C@H](O)[C@H]2O)[C@H]1O", "note": "(stereo partly specified)", "Potency": "inconclusive: 0.602 µM [activator, full curve]"},
      {"compound": "C[C@H]1CC[C@@]2(OC1)O[C@H]1CC3[C@@H]4CC[C@@H]5C[C@@H](O[C@@H]6O[C@H](CO)[C@@H](O[C@@H]7O[C@@H](C)[C@H](O)[C@@H](O)[C@H]7O)[C@H](O)[C@H]6O[C@@H]6O[C@H](CO)[C@@H](O)[C@H](O)[C@H]6O)CC[C@]5(C)C4CC[C@]3(C)[C@H]1[C@@H]2C", "note": "(stereo partly specified)", "CPE rescue (activation)": "inactive: -13.7% [at 6.64 µM]"}
    ]}
  ]
}
